About 7,500 (2.1%) of roughly 360,000 compounds were called active. This list was built around the results that the source calls inconclusive (neither active nor inactive); the mix of calls is not that of the screen. Calls follow the shape of the dose curve; as a rule, active = well fitted inhibition curve with a large enough effect; inconclusive = small, poorly fitted or top-dose-only effect, or effect the other way; inactive = flat fitted curve, though single readings scatter. A potency beside an inconclusive call is a rough fit, not a confirmed value.
Assay: Nrf2 qHTS screen for inhibitors; also: nearly all actives have a fitted effect of over 60% in size
Conditions: A549 ARE-Fluc reporter, luciferase luminescence, 18-24 h; series mostly up to 46 µM
How it was run: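 Concentration-response testing used A549 ARE_Fluc cells at 5000 cells/well. Following an 18-24 h compound incubation, viability was read by fluorescence (Ex 405/Em 525) and luciferase output by luminescence.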
Potency is read from the fitted curve at half-maximal effect.

Structure (SMILES) | Potency
O=C(Nc1ccccn1)c1ccc(Cl)c([N+](=O)[O-])c1 | inconclusive: 23.1 µM [activator, partial curve]
CCN(CC)S(=O)(=O)c1ccc(NC(=O)c2ccc(N3CCCC3=O)cc2)cc1 | active: 1.46 µM
CN(C)C(CNC(=O)CCC(=O)c1ccc(Br)cc1)c1ccccc1 (stereo not given) | inconclusive: 29.1 µM [activator, single point]
Cc1ccc2onc(CC(=O)Nc3cccc(C(F)(F)F)c3)c2c1 | inconclusive: 20.6 µM [falling, single point]
CCc1ccc(NC(=O)C2=CC(c3ccc(OC)c(OC)c3)=NS(=O)(=O)N2C)cc1 | active: 23.1 µM
Cc1ccccc1-n1ncc2c([N+](=O)[O-])cc([N+](=O)[O-])cc21 | inconclusive: 4.61 µM [falling, partial curve, poor fit]
Cc1ccc(NC(=O)c2cc(S(=O)(=O)N3CCc4ccccc43)cn2C)cc1 | inconclusive: 29.1 µM [falling, single point]
Cc1ccc(NC(=O)CCC(=O)NNC(=O)c2ccccc2)c(C)c1 | inconclusive: 20.6 µM [activator, partial curve, poor fit]
Cc1cccc(OCC(=O)N/N=C\c2cccn2C)c1C | inconclusive: 20.6 µM [falling, single point]
C/C(=N\NC(=O)c1ccccc1)c1ccccc1Br | inconclusive: 14.6 µM [activator, partial curve]
COc1ccc(CC(=O)N(Cc2ccccc2)c2ccc(C)cc2)cc1OC | inconclusive: 16.4 µM [activator, single point]
Cc1ccc(CNC(=O)Nc2cccs2)cc1 | inconclusive: 2.59 µM [activator, full curve]
Nc1ccc(C(=O)OCc2nc3ccccc3s2)cc1 | inconclusive: 11.6 µM [activator, partial curve, poor fit]
Brc1ccccc1/C=N/Nc1ccc2ccccc2n1 | inconclusive: 3.26 µM [activator, full curve]
CN(C)c1ccc(-c2nc(-c3ccco3)no2)cc1[N+](=O)[O-] | inactive
C[C@@H](C[C@@H](O)[C@H](O)C(C)(C)O)[C@@H]1CC[C@]2(C)C3=CC[C@H]4C(C)(C)C(=O)CC[C@]4(C)[C@H]3CC[C@@]12C | inconclusive: 20.6 µM [falling, single point]
Cc1ccc(C2(c3ccc(C)cc3)CC2C(=O)Nc2ccc([N+](=O)[O-])cc2O)cc1 (stereo not given) | inconclusive: 29.1 µM [falling, single point]
COc1ccccc1-c1c(C(F)(F)F)oc2cc(OC(=O)c3cccc([N+](=O)[O-])c3C)ccc2c1=O | inconclusive: 23.1 µM [falling, partial curve, poor fit]
Cc1ccccc1OCC(=O)Nc1cccc(N(C)S(C)(=O)=O)c1 | inconclusive: 20.6 µM [activator, single point]
CCOc1ncnc2c1[nH]c1ccccc12 | inconclusive: 29.1 µM [falling, single point]
COc1ccccc1N1CCN(S(=O)(=O)c2c(C(=O)N3CCOCC3)c(C)n(C)c2C)CC1 | inactive
CCCn1c(SCC(=O)Nc2sc(C)c(C)c2C#N)nnc1C(C)C | inconclusive: 18.4 µM [falling, partial curve, poor fit]

Quoted from the listing:
Potency with Cc1ccc(CNC(=O)Nc2cccs2)cc1 is entered as inconclusive: 2.59 µM [activator, full curve]
Potency with CN(C)C(CNC(=O)CCC(=O)c1ccc(Br)cc1)c1ccccc1 (stereo not given) is entered as inconclusive: 29.1 µM [activator, single point]
Potency with CCN(CC)S(=O)(=O)c1ccc(NC(=O)c2ccc(N3CCCC3=O)cc2)cc1 is entered as active: 1.46 µM

A second format for two compounds above.
Structure (SMILES),Potency
O=C(Nc1ccccn1)c1ccc(Cl)c([N+](=O)[O-])c1,"inconclusive: 23.1 µM [activator, partial curve]"
CCN(CC)S(=O)(=O)c1ccc(NC(=O)c2ccc(N3CCCC3=O)cc2)cc1,active: 1.46 µM

Next entries:

Structure (SMILES) | Potency
Cc1ccc(/C(=N/Nc2ncnc3ccccc23)C(=O)O)cc1 | inconclusive: 2.31 µM [activator, partial curve]
CCc1nonc1NC(=O)c1oc2ccc(C)cc2c1C | inconclusive: 3.26 µM [activator, single point]
CN1C=CC(=CC=C2C=CC(=O)C=C2)C=C1 | inconclusive: 9.2 µM [falling, partial curve, poor fit]
CCOC(=O)N1CCN(c2nc(C)c3c(n2)CC(C)CC3=O)CC1 (stereo not given) | inconclusive: 4.11 µM [falling, partial curve, poor fit]
CCOc1ccc(N2C(=O)c3n[nH]c(-c4cccs4)c3C2c2cccc(F)c2)cc1 (stereo not given) | inconclusive: 20.6 µM [falling, single point]
COc1ccc(-n2ncc3c2CC(C)(C)CC3NC(=O)CSc2ccccn2)cc1 (stereo not given) | inconclusive: 16.4 µM [falling, partial curve, poor fit]
CC1CCN(C(=O)c2scc3c2OCCO3)CC1 | inconclusive: 29.1 µM [falling, single point]
Nc1nc(CSc2ncn[nH]2)nc(Nc2ccc(F)cc2)n1 | inconclusive: 18.4 µM [activator, single point]
OCC(CBr)(CBr)CBr | inactive
O=C(Cc1ccc(O)cc1)NC1CCCCCC1 | inconclusive: 10.3 µM [activator, partial curve]
Cc1cc(N2CCN(c3cccc(C(F)(F)F)c3)CC2)n2nc(-c3ccccc3)nc2n1 | inconclusive: 20.6 µM [activator, partial curve, poor fit]
COc1ccc(CSCC(=O)N/N=C/c2ccc(OCC(=O)NCc3ccco3)cc2)cc1 | inconclusive: 18.4 µM [falling, partial curve, poor fit]
CCOc1ccc(N2Nc3n[nH]c(N)c3N2)cc1 | inconclusive: 29.1 µM [activator, single point]
CCc1cccc(C)c1NC(=O)CCn1c(=O)c2cccn2c2ccccc21 | inactive
Cc1ccnc(Nc2nc(-c3c(C)nc4sccn34)cs2)c1 | active: 20.6 µM
O=C(OCc1ccccc1)c1cccc(-c2nnn(Cc3ccccc3)n2)c1 | inconclusive: 8.91 µM [activator, partial curve]
O=C(CSc1nnc(Cc2cccs2)n1-c1ccccc1)Nc1ccc2c(c1)OCCO2 | inactive
CCCCOc1ccc(/C=C/C(=O)N(CC)CC(=O)Nc2ccc3c(c2)OCCO3)cc1OC | inconclusive: 29.1 µM [falling, partial curve, poor fit]
O=C(c1ccccc1F)N1CCN(c2ccc([N+](=O)[O-])c3ncccc23)CC1 | inactive
COc1ccc(-c2cc(C(=O)NC(C(=O)O)C(C)C)c(C)o2)cc1OC (stereo not given) | inconclusive: 0.731 µM [activator, full curve, poor fit]
COC(=O)c1ccccc1NC(=S)NC(=O)c1ccccc1C | inactive
O=C(Nc1nc2ccccc2s1)c1cccc(N2C(=O)CCC2=O)c1 | inconclusive: 14.6 µM [activator, partial curve]

Structure (SMILES) | Potency
COc1ccc(-c2cc(C(=O)N3CCN(c4ccccc4O)CC3)c3ccccc3n2)cc1 | inconclusive: 29.1 µM [falling, single point]
N#CC1=C2N=C(N)c3ccccc3N2C2=C(C(=O)CCC2)C1c1cccc(Cl)c1 (stereo not given) | inconclusive: 29.1 µM [falling, single point]
S=C(NCCc1ccccc1)N1CCN(C23CC4CC(CC(C4)C2)C3)CC1 | inconclusive: 9.2 µM [falling, partial curve]
Cc1ccc(NC(=O)N2CC3CCCN3c3ccccc32)c(C)c1 (stereo not given) | inconclusive: 5.8 µM [activator, partial curve, poor fit]
COc1cc(NC(=O)CNc2cccc(S(=O)(=O)N3CCCC3)c2)cc(OC)c1 | inconclusive: 18.4 µM [falling, single point]
CCOc1nc(Oc2cccc(C(=O)O)c2)nc(Oc2cccc(C(=O)O)c2)n1 | inconclusive: 9.2 µM [activator, partial curve, poor fit]
CCc1cccc(CC)c1NC(=S)Nc1ccc2cn[nH]c2c1 | inconclusive: 3.66 µM [falling, partial curve]
Cc1ccc(-c2cc(C(=O)N(Cc3ccc(C(C)(C)C)cc3)Cc3ccco3)no2)cc1 | inconclusive: 9.2 µM [falling, partial curve]
COc1ccc(C(=S)NCS(=O)(=O)c2ccc(C)cc2)cc1 | inactive
COc1ccc(-c2ccc(-c3nnn(CC(C)=O)n3)cc2)cc1 | inconclusive: 1.64 µM [activator, partial curve]
COc1ccc(NC(=O)c2ccco2)cc1NC(=O)COc1ccc(Cl)c(C)c1 | inactive
CC1CCCC(C)N1C(=O)Cn1cc(/C=C2/C(=O)Nc3ccccc32)c2ccccc21 (stereo not given) | active: 18.4 µM
COc1ccc(NC(=O)CCc2nnc3n(Cc4ccccc4Cl)c(=O)c4ccccc4n23)cc1 | inconclusive: 0.366 µM [falling, partial curve, poor fit]
CC1CCCCN1C(=O)C1CCN(S(=O)(=O)c2ccc(-n3cnnn3)cc2)CC1 (stereo not given) | inconclusive: 23.1 µM [falling, single point]
CC1CCCN(C(=O)CSc2nnc(-c3cccs3)o2)C1 (stereo not given) | inconclusive: 20.6 µM [activator, partial curve, poor fit]
Cc1ccc2nc(-c3ccc(Cl)c(NC(=O)COc4ccc(C(C)C)cc4)c3)oc2c1 | inconclusive: 1.84 µM [activator, full curve]
O=c1[nH]cc(NCCc2ccccc2)c(=O)[nH]1 | inconclusive: 23.1 µM [activator, single point]
COc1ccc(O)c(C(=O)CC(=O)c2ccncc2)c1 | inconclusive: 3.66 µM [activator, partial curve]
c1ccc(-c2nc(-c3ccc(-c4ccon4)s3)no2)cc1 | inconclusive: 8.2 µM [activator, partial curve]
CSCC(=O)N1CCCC(N2CCN(c3cccc(C(F)(F)F)c3)CC2)C1 (stereo not given) | inactive
O=C(CNC(=O)c1ccc(Br)cc1)N=Nc1c(O)[nH]c2ccc([N+](=O)[O-])cc12 | inactive

From PubChem BioAssay AID504444 (National Center for Advancing Translational Sciences (NCATS), 2011)
